Measurements from patent US5157032A, “Mixed ligand complexes and uses thereof as binding agents and probes to DNA” (The Trustees of Columbia University In The City of New York, priority 1990, dated 1992).
For at least one compound, name, drawing or mass did not settle the structure.

Experiments:
[1] = test system: Z-form DNA; assay: Steady state luminescence polarization with Z-form DNA; type: binding; settings: saturation
Description: (§1) FIG. 22 Steady State Polarization of Ru(bpy)2 (dppz)^2+ with B and Z-form DNA Under the conditions that provide B-form (lower curve) DNA the highest measured polarization is 0.15 with a limiting polarization 0.10. Under the conditions that provide Z-DNA (upper curve) the highest polarization is 0.35 with a limiting polarization of 0.14. Ru(bpy)2 (dppz)^2+ 10 μM, poly d(GC) d(GC) 100 μM, λex =482 nm.
Similarly, when 1 μM Ru(bpy)2 (dppz)^2+ is titrated into poly d(GC).d(GC) (100 μM) in the Z-form, luminescence polarization is also observed, but in this case the value is 0.35, over double the value found with the analogous solution with B-form. […] As more complex is added the observed polarization reduces to a limiting value of 0.14, still higher than the analogous sample with B-form, thus further confirming the Z-form is a more rigid structure than the B-form.

[2] = test system: B-form DNA; assay: Steady state luminescence polarization with B-form DNA; type: binding; settings: saturation
Description: as §1
To further test the extent of intercalation of this complex a study of the steady state luminescence polarization of the complex bound to each form of DNA was made. These experiments give information on how rigidly the complex is held by the DNA. […] This reflects a situation where the complex is completely bound to the right-handed helix. As the concentration of Ru(bpy)2 (dppz)^2+ increases, the polarization decreases to limiting value (0.10) at a complex:base pair ratio of 1:10.
To further test the extent of intercalation of this complex we studied the steady state luminescence polarization of the complex bound to each form of DNA. These experiments give information on how rigidly the complex is held by the DNA. […] This reflects a situation where the complex is completely bound to the right-handed helix. As the concentration of Ru(bpy)2 (dppz)^2+ increases, the polarization decreases to a limiting value (0.10) at a complex: base pair rtio of 1:10.

[3] = test system: calf thymus DNA; assay: Equilibrium dialysis of racemic complexes against calf thymus DNA (Scatchard, dialysate CD); settings: 5 mM Tris, 50 mM NaCl, pH 7.5; standard deviation in parentheses; read-out: Km × 10) equilibrium dialysis (intrinsic binding constant Kb) (converted)
Description: Equilibrium Dialysis: Equlibrium dialysis of the reacemic metal complexes was perforemd against calf-thymus DNA using procedures described previously. (74) The buffer used was 5 mM Tris, 50 mM NaCl at pH 7.5. Samples were agitated on a shaker bath during equilibration which occurred after three to five days, as determined by control samples containing no DNA. After equilibration, volumes of liquid inside and outside the dialysis bags were determined (approximately 1 and 3 mls, respectively) and circular dichroism of the dialysate was meaxured on a Jasco J-40 spectropolarimeter. Final ruthenium concentration inside and outside the bags were measured by visible absorbance. Data anaylsis was performed on a VAX-780 using non-linear least squares analysis.
Equilibrium Dialysis: Equilibrium binding constants for the metal complexes with DNA may be determined classically by equilibrium dialysis. Calf thymus DNA was dialyzed against the series of mixed ligand complexes using a broad range of ruthenium concentrations. […] The results have been plotted according to Scatchard (88), where r is the ratio of bound metal to DNA-phosphate concentration, and cf is the concentration of free metal complex. The data were fit by non-linear least squares analysis to the McGhee and von Hippel equation (8945) governing random non-cooperative binding to a lattice, […]

| SMILES | complex:base pair ratio, Z-form [1] | complex:base pair ratio, Z-form ([1]; listed as Ru(bpy)2 (dppz)2) | complex:base pair ratio, B-form [2] | Kd [3] [µM] |
| --- | --- | --- | --- | --- |
| [Ru+2].c1ccc(-c2ccccn2)nc1.c1ccc(-c2ccccn2)nc1.c1ccc2nc3c4cccnc4c4ncccc4c3nc2c1 [Ru(bpy)2 (dppz)^2+] | 1:10 | 1 metal complex : 10 base pairs | 1:10 |  |
| [Ru+2].c1ccc(-c2ccccn2)nc1.c1cnc2c(c1)ccc1cccnc12.c1cnc2c(c1)ccc1cccnc12 [Ru(phen)2 (bpy)^2+] |  |  |  | 417 |
